# pIC50: −log10 of the molar value. Counter-ions that a name gives are not always drawn. Like-named read-outs stand apart in the source and are kept apart here.
# System: morphine induced cAMP overshoot
# Assay: Inhibition of morphine-induced cAMP overshoot, qHTS of LOPAC library
# Format: cell-based
compound,measurement,setting,value
C=CCN1CC[C@]23c4c5ccc(O)c4O[C@H]2C(=O)CC[C@@]3(O)[C@H]1C5 [Naloxone hydrochloride],pIC50,"18 h, read-out: Potency",6.68
same,pIC50,read-out: IC50,6.70
